Measurements published in patent US4426371A, “Novel N-hydroxyalkylated dicarboxylic acid bis(3,5-dicarbamoyl-2,4,6-triiodoanilides), as X-ray contrast media” (Schering, Aktiengesellschaft, priority 1980, dated 1984).

Assay: Flavor
Settings: suitability for oral administration and introduction into the lungs

O=C(NC(CO)CO)c1c(I)c(C(=O)NC(CO)CO)c(I)c(N(CCO)C(=O)CC(=O)N(CCO)c2c(I)c(C(=O)NC(CO)CO)c(I)c(C(=O)NC(CO)CO)c2I)c1I [A, malonic acid bis[3,5-bis(1,3-dihydroxyisopropylcarbamoyl)-2,4,6-triiodo-N-2-hydroxyethylanilide]]
flavor: slight and neutral flavor

O=C(NCC(O)CO)c1c(I)c(C(=O)NCC(O)CO)c(I)c(N(CCO)C(=O)C(=O)N(CCO)c2c(I)c(C(=O)NCC(O)CO)c(I)c(C(=O)NCC(O)CO)c2I)c1I (centres unmarked) [Example 2, Oxalic Acid Bis[3,5-bis(2,3-dihydroxypropylcarbamoyl)-2,4,6-triiodo-N-(2-hydroxyethyl)anilide]]
flavor: slight and neutral flavor
